Experimental data: PubChem BioAssay AID504808 (Drosophila RNAi Screening Center, 2011)

Aim: 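Chromatin factors that keep E2F targets switched off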 (primary screen)
Cells: Drosophila S2 cells
Knock-down reagent: long dsRNA against Drosophila genes
Read-out: 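Dual luciferase plate measurements; E2F-specific signal taken as firefly over Renilla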
Direction: E2F firefly: higher = more E2F reporter activity; Renilla normaliser: higher = more normaliser reporter signal
Rule for the call: 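a knock-down counted as active when the firefly/Renilla E2F signal rose above 50%, a threshold chosen arbitrarily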
In all, the deposit lists about 21,000 reagents; this is an unselected part of those that have a named target and a result. Over the whole deposit, 18 (0.084%) are marked active. 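Raw counts without plate normalisation, one of two replicates; the ratio scores behind the calls were not deposited.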 A number with no mark means an inactive call. A plus sign joins genes that one reagent is predicted to hit. Not given: the amount of reagent, the time to read-out.

target | amplicon | E2F firefly, rep 1 | Renilla normaliser, rep 1
Ent2 | DRSC02124 | 90711 | 3509
CG34160 | DRSC01131 | 1.41e5 | 6166
Nrx-IV | DRSC11238 | 74491 | 3636
ics | DRSC01878 | 85464 | 3218
cid | DRSC05429 | 1.43e5 | 5963
cid | DRSC07592 | 1.01e5 | 4544
Cpr49Ac | DRSC07199 | 2682 | 198
puml | DRSC06793 | 1.42e5 | 4628
CG30195 | DRSC04155 | 1.07e5 | 4668
CG14621 | DRSC20635 | 1.31e5 | 6955
Smox | DRSC18716 | 97041 | 5444
Sse | DRSC09746 | 72221 | 4749
alc | DRSC07062 | 1.48e5 | 4845
Pgant2 | DRSC00587 | 1.42e5 | 4933
Megf8 | DRSC03058 | 94392 | 4104
l(2)dtl | DRSC04697 | 95278 | 2936
ppk8 | DRSC17269 | 82584 | 2191
CG12099 | DRSC08253 | 1.03e5 | 4971
CG6290 | DRSC19979 | 1.52e5 | 5176
MED25 | DRSC14483 | 49355 | 3316
Hus1-like | DRSC12353 | 1.41e5 | 7622
CG9010 | DRSC07320 | 80021 | 3243
DCTN4-p62 | DRSC06101 | 3416 | 189
Cpr30B | DRSC02728 | 1.44e5 | 5108
CG13081 | DRSC02185 | 1.10e5 | 4436
pyx | DRSC08510 | 94567 | 4198
pyx | DRSC08511 | 84038 | 4192
ssp6 | DRSC08791 | 1.21e5 | 3783
ssp6 | DRSC10677 | 86388 | 3497
CG7990 | DRSC19296 | 82716 | 2523
CG7990 | DRSC20069 | 1.50e5 | 5268
CG6168 | DRSC10596 | 1.40e5 | 7335
nahoda | DRSC03954 | 1.25e5 | 4155
nahoda | DRSC04126 | 81939 | 3321
Muc11A | DRSC19498 | 1.32e5 | 6880
CG15177 | DRSC12557 | 1.26e5 | 5489
CG16853 | DRSC01877 | 1.10e5 | 4456
CG14811 | DRSC17962 | 1.18e5 | 5922
Bsg | DRSC01010 | 1.27e5 | 5047
Bsg | DRSC01011 | 1.44e5 | 5503
asun | DRSC16733 | 80366 | 3122
SuUR | DRSC11292 | 95763 | 4291
mTerf5 | DRSC16209 | 67591 | 3397
GstE13 | DRSC06083 | 3103 | 202
poe | DRSC03593 | 94272 | 4602
flz | DRSC07109 | 1.45e5 | 4896
Snap24 | DRSC16864 | 1.39e5 | 6783
Arf4 | DRSC17195 | 43920 | 4046
Mhc | DRSC03367 | 99015 | 4507
Rad9 | DRSC11263 | 73268 | 3716
Proc-R | DRSC18410 | 1.11e5 | 6040
CG12301 | DRSC09875 | 78288 | 3699
CG13227 | DRSC06347 | 1.08e5 | 4229
CG34148 + P5CDh2 | DRSC13519 | 93686 | 2121
mRpL45 | DRSC16146 | 87998 | 6161
Slik | DRSC04471 | 84643 | 3075
UGP + PGRP-LF | DRSC10418 | 1.04e5 | 5198

Only “Renilla normaliser, rep 1” (4 entries from above):
Mhc [DRSC03367]	4507
Rad9 [DRSC11263]	3716
Proc-R [DRSC18410]	6040
CG12301 [DRSC09875]	3699
